According to the supplement of paper PMC7661543:
Differences between knockout arms are mostly noise.

Tested on: HCC-38
Experiment: relative cell number vs DMSO control (72 h) (% of DMSO); higher = less growth inhibition (more cells)
Method: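 QMAP-Seq: a pool of 5 breast cancer cell lines (ZR-75-1, SKBR3, HCC-38, MDA-MB-231, BT-20), each carrying 12 doxycycline-inducible Cas9 sgRNA perturbations (11 knockouts plus non-targeting sgNT), was treated with compounds for 72 h at four 10-fold doses (10 nM-10 uM or 1 nM-1 uM range). Barcodes were amplified and sequenced, and cell number was interpolated from 293T spike-in standard curves. The result is expressed as % of the median of DMSO wells. Two biological replicates.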

CC(C)c1cc(-c2n[nH]c(=O)n2-c2ccc3c(ccn3C)c2)c(O)cc1O [Ganetespib]
Details	relative cell number
sgRNA knockout: sgATF3, 1 nM	89.1
sgRNA knockout: sgATF3, 10 nM	97
sgRNA knockout: sgATF3, 100 nM	27.4
sgRNA knockout: sgATF3, 1000 nM	21.1
sgRNA knockout: sgATF4, 1 nM	90.02
sgRNA knockout: sgATF4, 10 nM	107
sgRNA knockout: sgATF4, 100 nM	23.4
sgRNA knockout: sgATF4, 1000 nM	23.9
sgRNA knockout: sgATF6, 1 nM	98.5
sgRNA knockout: sgATF6, 10 nM	103
sgRNA knockout: sgATF6, 100 nM	27.1
sgRNA knockout: sgATF6, 1000 nM	24.3
sgRNA knockout: sgATG7, 1 nM	93.5
sgRNA knockout: sgATG7, 10 nM	101
sgRNA knockout: sgATG7, 100 nM	23.1
sgRNA knockout: sgATG7, 1000 nM	23.4
sgRNA knockout: sgERN1, 1 nM	88.3
sgRNA knockout: sgERN1, 10 nM	95.4
sgRNA knockout: sgERN1, 100 nM	22.6
sgRNA knockout: sgERN1, 1000 nM	21.3
sgRNA knockout: sgHSF1, 1 nM	90.6
sgRNA knockout: sgHSF1, 10 nM	76.9
sgRNA knockout: sgHSF1, 100 nM	18.7
sgRNA knockout: sgHSF1, 1000 nM	15.1
sgRNA knockout: sgHSF2, 1 nM	96.5
sgRNA knockout: sgHSF2, 10 nM	97.8
sgRNA knockout: sgHSF2, 100 nM	25.5
sgRNA knockout: sgHSF2, 1000 nM	22.5
sgRNA knockout: sgKEAP1, 1 nM	97
sgRNA knockout: sgKEAP1, 10 nM	102
sgRNA knockout: sgKEAP1, 100 nM	24.8
sgRNA knockout: sgKEAP1, 1000 nM	21.7
sgRNA knockout: sgNFE2L2, 1 nM	88.2
sgRNA knockout: sgNFE2L2, 10 nM	93.5
sgRNA knockout: sgNFE2L2, 100 nM	23.6
sgRNA knockout: sgNFE2L2, 1000 nM	20.1
sgRNA knockout: sgSLC35F2, 1 nM	84.9
sgRNA knockout: sgSLC35F2, 10 nM	87.4
sgRNA knockout: sgSLC35F2, 100 nM	23.6
sgRNA knockout: sgSLC35F2, 1000 nM	23.5
sgRNA knockout: sgXBP1, 1 nM	97.8
sgRNA knockout: sgXBP1, 10 nM	103
sgRNA knockout: sgXBP1, 100 nM	24.9
sgRNA knockout: sgXBP1, 1000 nM	22.8

Cc1sc2c(c1C)C(c1ccc(Cl)cc1)=N[C@@H](CC(=O)OC(C)(C)C)c1nnc(C)n1-2 [(+)-JQ1]
Details	relative cell number
sgRNA knockout: sgATF3, 10 nM	102
sgRNA knockout: sgATF3, 100 nM	118
sgRNA knockout: sgATF3, 1000 nM	91.2
sgRNA knockout: sgATF3, 10000 nM	65.2
sgRNA knockout: sgATF4, 10 nM	103
sgRNA knockout: sgATF4, 100 nM	114
sgRNA knockout: sgATF4, 1000 nM	87
sgRNA knockout: sgATF4, 10000 nM	69.7
sgRNA knockout: sgATF6, 10 nM	94.5
sgRNA knockout: sgATF6, 100 nM	121
sgRNA knockout: sgATF6, 1000 nM	99.16
sgRNA knockout: sgATF6, 10000 nM	53.1
sgRNA knockout: sgATG7, 10 nM	102
sgRNA knockout: sgATG7, 100 nM	107
sgRNA knockout: sgATG7, 1000 nM	88.8
sgRNA knockout: sgATG7, 10000 nM	65.7
sgRNA knockout: sgERN1, 10 nM	104
sgRNA knockout: sgERN1, 100 nM	117
sgRNA knockout: sgERN1, 1000 nM	98.3
sgRNA knockout: sgERN1, 10000 nM	69.7
sgRNA knockout: sgHSF1, 10 nM	90.8
sgRNA knockout: sgHSF1, 100 nM	96.3
sgRNA knockout: sgHSF1, 1000 nM	98.9
sgRNA knockout: sgHSF1, 10000 nM	74.2
sgRNA knockout: sgHSF2, 10 nM	107
sgRNA knockout: sgHSF2, 100 nM	122
sgRNA knockout: sgHSF2, 1000 nM	87.9
sgRNA knockout: sgHSF2, 10000 nM	64.5
sgRNA knockout: sgKEAP1, 10 nM	108
sgRNA knockout: sgKEAP1, 100 nM	120.1
sgRNA knockout: sgKEAP1, 1000 nM	85.9
sgRNA knockout: sgKEAP1, 10000 nM	56.7
sgRNA knockout: sgNFE2L2, 10 nM	102
sgRNA knockout: sgNFE2L2, 100 nM	106
sgRNA knockout: sgNFE2L2, 1000 nM	89.4
sgRNA knockout: sgNFE2L2, 10000 nM	75.2
sgRNA knockout: sgSLC35F2, 10 nM	102
sgRNA knockout: sgSLC35F2, 100 nM	126
sgRNA knockout: sgSLC35F2, 1000 nM	85.7
sgRNA knockout: sgSLC35F2, 10000 nM	62.4
sgRNA knockout: sgXBP1, 10 nM	99.6
sgRNA knockout: sgXBP1, 100 nM	116
sgRNA knockout: sgXBP1, 1000 nM	86.8
sgRNA knockout: sgXBP1, 10000 nM	69.2

Cc1ccc(F)c(NC(=O)Nc2ccc(-c3cccc4[nH]nc(N)c34)cc2)c1 [Linifanib]
Details	relative cell number
sgRNA knockout: sgATF3, 10 nM	93.7
sgRNA knockout: sgATF3, 100 nM	86.3
sgRNA knockout: sgATF3, 1000 nM	112
sgRNA knockout: sgATF3, 10000 nM	57.9
sgRNA knockout: sgATF4, 10 nM	101
sgRNA knockout: sgATF4, 100 nM	83.9
sgRNA knockout: sgATF4, 1000 nM	121
sgRNA knockout: sgATF4, 10000 nM	46.5
sgRNA knockout: sgATF6, 10 nM	91.2
sgRNA knockout: sgATF6, 100 nM	110
sgRNA knockout: sgATF6, 1000 nM	116
sgRNA knockout: sgATF6, 10000 nM	66
sgRNA knockout: sgATG7, 10 nM	101
sgRNA knockout: sgATG7, 100 nM	83.8
sgRNA knockout: sgATG7, 1000 nM	117
sgRNA knockout: sgATG7, 10000 nM	56.5
sgRNA knockout: sgERN1, 10 nM	95.8
sgRNA knockout: sgERN1, 100 nM	89.7
sgRNA knockout: sgERN1, 1000 nM	118
sgRNA knockout: sgERN1, 10000 nM	54.6
sgRNA knockout: sgHSF1, 10 nM	76.5
sgRNA knockout: sgHSF1, 100 nM	116
sgRNA knockout: sgHSF1, 1000 nM	125
sgRNA knockout: sgHSF1, 10000 nM	67.9
sgRNA knockout: sgHSF2, 10 nM	96.6
sgRNA knockout: sgHSF2, 100 nM	93.3
sgRNA knockout: sgHSF2, 1000 nM	118
sgRNA knockout: sgHSF2, 10000 nM	56.2
sgRNA knockout: sgKEAP1, 10 nM	102
sgRNA knockout: sgKEAP1, 100 nM	122
sgRNA knockout: sgKEAP1, 1000 nM	124
sgRNA knockout: sgKEAP1, 10000 nM	66.9
sgRNA knockout: sgNFE2L2, 10 nM	91.2
sgRNA knockout: sgNFE2L2, 100 nM	73.5
sgRNA knockout: sgNFE2L2, 1000 nM	118
sgRNA knockout: sgNFE2L2, 10000 nM	51.1
sgRNA knockout: sgSLC35F2, 10 nM	92.9
sgRNA knockout: sgSLC35F2, 100 nM	88.9
sgRNA knockout: sgSLC35F2, 1000 nM	117
sgRNA knockout: sgSLC35F2, 10000 nM	61.5
sgRNA knockout: sgXBP1, 10 nM	97.5
sgRNA knockout: sgXBP1, 100 nM	77.5
sgRNA knockout: sgXBP1, 1000 nM	120
sgRNA knockout: sgXBP1, 10000 nM	60.7
